Results are given in words; binding and its absence hold for the method and conditions named. Some results given as binding are weak or reduced against the parent protein; the word gives no strength.

The target of this test is Trypanosoma brucei inosine-5'-monophosphate dehydrogenase (Trypanosoma brucei) (UniProt P50098). Nature of the test: crystal structure; serial femtosecond crystallography (XFEL, LCLS CXI) at room temperature (291 K) on crystals grown in living Sf9 cells, isolated and kept in PBS; 2.80 Å; space group P4 21 2, two monomers in the asymmetric unit; native ATP and GMP bound.

B1: Trypanosoma brucei inosine-5'-monophosphate dehydrogenase (enzyme, UniProt P50098 1-512, looked up)
chain: MENTNLRTKTLRDGTTAEELFSQDGLSFNDFIILPGFIDFDSSKVNVSGQFTKNILLHLPLVSSPMDTVTESSMARAMALMGGIGVIHNNCTVEQQARMVRSVKLYRNGFIMKPKSVSPDVPVSTIRNIKSEKGISGILVTEGGKYDGKLLGIVCTKDIDFVKDASAPVSQYMTRRENMTVERYPIKLEEAMDVLNRSRHGYLPVLNDKDEVVCLCSRRDAVRARDYPNSSLDRNGHLLCAAATSTREADKGRVAALSEAGIDVLVLDSSQGNTIYQVSFIRWVKKTYPHLEVVAGNVVTQDQAKNLIDAGADSLRIGMGSGSICITQEVLACGRPQATAIYKVARYAASRGVPCVADGGLRNVGDVCKALAVGANVAMLGSMIAGTSETPGEYFFKDGMRLKGYRGMGSIDAMLQGRESGKRYLSENETLQVAQGVAGAVLDKGSVLKLLAYIHKGLQQSAQDIGEVSFDAIREKVYEGQVLFNRRTLTAQSEGAVHSLHHYERKLFASKL
notes: Inosine-5'-monophosphate dehydrogenase of Trypanosoma brucei, full length, with its native C-terminal SKL motif (PTS1); Two monomers in the asymmetric unit; the octamer arises by crystal symmetry; also called TbIMPDH; IMPDH; source: Sf9 insect cells infected with recombinant baculovirus; crystallised in cellulo, crystals isolated by cell lysis (RIPA buffer), washed and stored in PBS; not shown: …
As to B1, the binding entry is given as “binds”.

These data come from paper PMC6992785, “In cellulo crystallization of Trypanosoma brucei IMP dehydrogenase enables the identification of genuine co-factors” (Nature Communications, 2020).
